Experimental findings from PubChem BioAssay AID493014 (National Center for Advancing Translational Sciences (NCATS), 2011) are described below.

The list shows a part of the results. The main result of the screen is listed elsewhere. These columns were measured beside it and carry no call. The list favours compounds with an active or inconclusive main result. Words in brackets tell the shape of the fitted curve; partial curves, single points and poor fits give uncertain potencies.

A short description of this assay: qHTS Assay to Find Inhibitors of Chronic Active B-Cell Receptor Signaling. The conditions noted are these: ABC-DLBCL IkBa-CBG/CBR reporter, luminescence ratio (green luciferase fused to IkBa over red control in TMD8 lymphoma cells), 4 h. A digest of the protocol:
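Doxycycline induced both beetle luciferases in TMD8 lymphoma cells; IKK-driven degradation limits the IkappaBalpha-fused green signal, while red luminescence normalises for cell number and nonspecific effects. Compounds tested up to 46 uM, 4 hrs.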
On the technique in general: In qHTS, concentration-response curves come from the screen itself.

Setting [1] is: measured here: CBR red luminescence, cell number.
Where [2] appears, read: measured here: IkBa-CBG green luminescence.

In the case of `Cn1cccc1Cc1nnc(SCC(=O)N2CCCC2)n1CCc1ccccc1`, the AC50 under setting [1] was 2.59 µM [rising, full curve].

Regarding `COc1ccc(NC(=O)C2C3CCC(O3)C2C(=O)O)cc1OC` (centres undefined), under setting [1], the AC50 is 35.5 µM [rising, single point].

For `COC(=O)[C@H](CCSC)NC(=O)Nc1ccc(C)c(C)c1`, under setting [1], the AC50 is 12.6 µM [rising, partial curve].

Consider `COc1ccc(/C=N\NC(=O)C2=NNC(=O)C2C)cc1` (centres undefined), for which the AC50 under setting [1] was 1 µM [falling, full curve].

For `O=S1(=O)c2ccc(Br)cc2N2CCC[C@@H]2CN1Cc1ccccc1`, the AC50 under setting [1] is 29.1 µM [rising, single point].

Consider `NC(=O)Nc1ccc(C(=O)OCC(=O)c2c[nH]c3ccccc23)cc1`, for which, under setting [1], the AC50 is 7.31 µM [falling, partial curve].

With `O=C(COc1ccccc1)Nc1ccccc1F`, under setting [1], the AC50 was 12.6 µM [falling, partial curve].

On to `CC1(C)Cc2c(sc(NC(=O)COc3cccc4ccccc34)c2C#N)C(C)(C)N1`, for which the half-maximal activity concentration (AC50) under setting [1] is 7.94 µM [rising, partial curve, poor fit].

Take `Cc1ccc(C(=O)Nc2cc(=O)n(C)c(=O)n2C)o1`: the concentration at half-maximal activity (AC50) under setting [2] was 29.1 µM [rising, partial curve, poor fit].

In the case of `O=C(Nc1cc(Br)ccc1O)c1cc(-c2ccco2)on1`, the AC50 under setting [1] was 10 µM [falling, single point].

Regarding `CC(=O)c1cc2c(C)c(C(=O)c3ccccc3)oc2cc1O`, the half-maximal activity concentration (AC50) under setting [1] is 2.31 µM [rising, partial curve, poor fit].

In the case of `Fc1ccccc1CSc1nnc(-c2cccs2)o1`, under setting [1], the half-maximal activity concentration (AC50) was 5.01 µM [rising, partial curve].

Take `CCSC1=N/C(=C\c2ccc(OC)cc2)C(=O)N1`: the concentration at half-maximal activity (AC50) under setting [1] was 6.51 µM [rising, partial curve, poor fit].

Turning to `CCN(CC)S(=O)(=O)c1ccc(N2CCCC2)c(NC(=O)c2c(-c3ccccc3)noc2C)c1`, the AC50 under setting [1] is 20 µM [rising, partial curve, poor fit].

On to `O=C(Nc1cc(Cl)cc(Cl)c1)N1CCCC1`, for which, under setting [1], the AC50 was 25.1 µM [falling, single point].

For `N#CC1=C(SCC(=O)Nc2cccc3cccnc23)NC(=O)C(C#N)C12CCCCC2` (centres undefined), the half-maximal activity concentration (AC50) under setting [1] was 29.1 µM [falling, single point].

As for `O=C1NC2(CCCC2)C(=O)N1Cc1cc(=O)n2ccsc2n1`, the AC50 under setting [1] was 5.62 µM [falling, single point].

`CC(=O)N1N=C(c2ccccc2O)OC1(C)CC(=O)Nc1ccccc1` (centres undefined): the AC50 under setting [1] was 11.6 µM [falling, partial curve].

In the case of `CS(=O)(=O)c1nc(-c2ccco2)cc(C(F)(F)F)n1`, the half-maximal activity concentration (AC50) was 8.91 µM [falling, partial curve] under setting [1] and 17.8 µM [rising, single point] under setting [2].

As for `O=C(Nc1ccccc1[N+](=O)[O-])C1=C(O)CCn2c1nc1ccccc12`, the AC50 under setting [1] was 0.13 µM [falling, full curve].

Consider `COc1ccc2nc(Cl)c(/C=N/Nc3ccccn3)cc2c1`, for which the AC50 under setting [1] was 25.1 µM [rising, single point].

On to `C/C(CC(=O)Nc1cccc(C(F)(F)F)c1)=N\NC(=O)C1CCCCC1`, for which, under setting [1], the AC50 was 22.4 µM [falling, single point].

As to `COc1cc(OC)cc(C(=O)N[C@H](C(=O)Nc2nc3ccccc3[nH]2)C(C)C)c1`, the AC50 under setting [1] was 3.98 µM [rising, partial curve] and the concentration at half-maximal activity (AC50) under setting [2] is 2.51 µM [falling, full curve].

As to `CCCCC(=O)Nc1cc(Cl)ccc1C(=O)O`, the half-maximal activity concentration (AC50) under setting [1] was 35.5 µM [falling, single point].

As to `CCn1c(Cl)c(C=O)s/c1=N\S(=O)(=O)c1ccccc1`, the AC50 under setting [1] was 35.5 µM [falling, single point].

In the case of `COc1ccc(NC(=O)Cn2c(=O)sc3ccccc32)cc1`, the AC50 was 4.11 µM [rising, single point] under setting [1] and 29.1 µM [falling, partial curve, poor fit] under setting [2].

As for `CC(=O)N1c2ccccc2CCc2ccc(N)cc21`, under setting [1], the concentration at half-maximal activity (AC50) was 0.891 µM [falling, full curve].

For `CC(C)CC(=O)Nc1ccc2c(c1)nc(CCN1CCCCC1)n2C`, the AC50 under setting [1] was 14.1 µM [falling, single point].

`N/C(=N\OC(=O)c1ccc(Br)cc1)c1ccncc1`: under setting [1], the concentration at half-maximal activity (AC50) is 1 µM [rising, full curve].

For `C[C@@H]1CN(CCCn2c3ccccc3c3ccccc32)C[C@H](C)N1`, under setting [1], the concentration at half-maximal activity (AC50) is 12.6 µM [falling, partial curve, poor fit].

With `Cc1ccc(C)c(Cn2c(=O)n(-c3ccc(CC(=O)NCc4ccco4)cc3)c(=O)c3sccc32)c1`, the half-maximal activity concentration (AC50) by setting is: under setting [1], 6.51 µM [rising, partial curve]; under setting [2], 10.3 µM [falling, partial curve, poor fit].

With `CCOc1ccc(NC(=O)COC(=O)CSCC(=O)Nc2ccc(C)cc2C)cc1`, the AC50 under setting [1] was 1.64 µM [rising, partial curve, poor fit].

Turning to `CC(C)NC(=O)NNC(=O)Cn1nnc(-c2cccc(Cl)c2Cl)n1`, under setting [1], the AC50 is 28.2 µM [falling, single point].

Consider `COc1ccc(N2CCN(CC(=O)c3c(C)n(C)c4ccc(OC)cc34)CC2)cc1`, for which the AC50 under setting [1] is 0.112 µM [rising, full curve, poor fit].

Regarding `CN(c1cccc(Cl)c1)S(=O)(=O)c1cccc(C(=O)NC2=NCCS2)c1`, under setting [1], the AC50 was 14.1 µM [falling, single point].

Take `O=C(N/N=C\c1ccccn1)C1COc2cc3ccccc3cc2O1` (centres undefined): the AC50 runs as follows: under setting [1], 1.12 µM [falling, partial curve]; under setting [2], 15.8 µM [falling, partial curve, poor fit].

Turning to `COc1cccc(NC(=O)c2ccc(CN3CCc4ccccc4C3)cc2)c1`, the half-maximal activity concentration (AC50) under setting [1] was 25.1 µM [falling, single point].

For the compound `CCc1cccc(C)c1Nc1nc2ccccc2n2cnnc12`, the half-maximal activity concentration (AC50) under setting [1] is 0.631 µM [rising, full curve].

In the case of `O=C(CN1C(=O)c2ccccc2C1=O)c1ccc(F)cc1`, under setting [1], the concentration at half-maximal activity (AC50) is 8.91 µM [falling, partial curve, poor fit].

With `Nc1nc(SCc2nc3scc(-c4cccs4)c3c(=O)[nH]2)n[nH]1`, under setting [1], the half-maximal activity concentration (AC50) is 18.4 µM [rising, single point].

As for `c1ccc(CN=C2NN=C(c3ccccc3)CS2)cc1`, the AC50 under setting [1] is 12.6 µM [falling, partial curve, poor fit].

In the case of `COc1c(CC=C(C)C)cc(C2CC(=O)c3c(O)cc(O)cc3O2)cc1CC=C(C)C` (centres undefined), the AC50 was 35.5 µM [falling, single point] under setting [1] and 35.5 µM [rising, partial curve, poor fit] under setting [2].

For `CC(C)CNC(=O)c1c(F)c(F)c(F)c(F)c1F`, under setting [1], the concentration at half-maximal activity (AC50) was 35.5 µM [falling, partial curve, poor fit].

Consider `CCOc1ccccc1C(=O)OCC(=O)Nc1ncc(C(F)(F)F)cc1Cl`, for which the half-maximal activity concentration (AC50) under setting [1] was 0.58 µM [rising, full curve].

Turning to `CCN1CC(CNC(=O)c2ccc3nc(Cc4cccc(Cl)c4)oc3c2)CC1=O` (centres undefined), the AC50 under setting [1] is 35.5 µM [rising, single point].

Consider `COc1cc2cnc(-c3cccnc3)cc2cc1OC`, for which the concentration at half-maximal activity (AC50) under setting [1] is 29.1 µM [rising, single point].

As to `CCOC(=O)c1c(C)[nH]c(C)c1C(=O)COC(=O)c1cccc(S(=O)(=O)NC)c1`, the AC50 under setting [1] is 1.78 µM [rising, partial curve, poor fit].

As to `O=c1oc2c3c4c(cc2c2c1CCC2)OCCN4CCC3`, the AC50 under setting [1] was 8.91 µM [rising, partial curve, poor fit].

Take `CC(C)Nc1nc(NC(C)C)nc(SCCOC(=O)Nc2ccc(Cl)cc2Cl)n1`: the half-maximal activity concentration (AC50) under setting [1] was 32.6 µM [falling, single point].

Regarding `COc1ccccc1NC(=O)CN(c1ccccc1F)S(C)(=O)=O`, under setting [1], the half-maximal activity concentration (AC50) was 32.6 µM [rising, single point].

With `Cc1nc(C)c(CCNC(=O)c2ccc(C(F)(F)F)cc2)s1`, the AC50 under setting [1] is 0.731 µM [rising, full curve, poor fit].

For the compound `CCN(CC)S(=O)(=O)c1ccc(N2CCOCC2)c(NS(=O)(=O)c2ccc(C)c(C)c2)c1`, under setting [1], the concentration at half-maximal activity (AC50) is 0.517 µM [rising, partial curve, poor fit].

Take `COc1cccc(NC(=O)[C@H](NC(=O)[C@@H]2Cc3ccccc3CN2)c2ccccc2)c1`: under setting [1], the AC50 was 4.47 µM [falling, partial curve, poor fit].

For `COc1ccc(S(=O)(=O)N(C)C(C)CCc2ccco2)cc1` (centres undefined), the concentration at half-maximal activity (AC50) under setting [1] is 12.6 µM [rising, partial curve].

`Oc1c(C(Nc2cccc(C(F)(F)F)c2)c2cccnc2)ccc2cccnc12` (centres undefined): the AC50 under setting [1] was 23.1 µM [falling, single point].

As for `COc1cccc(N2CCN(CC(=O)C34CC5CC(CC(C5)C3)C4)CC2)c1`, the concentration at half-maximal activity (AC50) under setting [1] was 29.1 µM [rising, single point].

For the compound `COc1ccc(-c2[nH]c(-c3ccccc3)nc2SCC(=O)NC2CCCC2)cc1`, the AC50 under setting [1] is 5.8 µM [rising, partial curve, poor fit].

`Fc1ccc(Cn2nnc(-c3ccc(Cl)cc3)n2)cc1`: under setting [1], the AC50 was 6.31 µM [rising, partial curve].

As to `O=C(NNC(=S)NC(=O)c1ccccc1)c1cccnc1`, under setting [1], the AC50 was 10 µM [falling, partial curve].

In the case of `Cc1ccc(C(=O)COc2nc(C)cc(C)c2C#N)cc1`, the concentration at half-maximal activity (AC50) under setting [1] was 35.5 µM [rising, partial curve, poor fit].

For the compound `CCN(CC)S(=O)(=O)c1ccc(C(=O)Nc2nnc(CSC)o2)cc1`, the AC50 under setting [1] was 20 µM [rising, single point].

Take `O=C(NCCCN1CCOCC1)c1ccc(-n2nc(C(F)(F)F)cc2-c2cccs2)cc1`: the AC50 under setting [1] was 0.0058 µM [falling, full curve, poor fit].

For the compound `COc1cc(/C=C/C(=O)OCC(=O)NCc2ccco2)ccc1O`, the concentration at half-maximal activity (AC50) under setting [2] was 32.6 µM [falling, partial curve, poor fit].

A word on the AC50: it is the concentration at which the activity in the assay is half-maximal.
